This is one part of the list.
How the values were obtained:
Assay in all cases: log2 fold change, soluble protein after heating vs DMSO (PISA); higher = thermal stabilisation; K562 cells, 10 uM, 30 min; active = over 0.2 and 3.5 SD of the protein, either way, in both replicates (recomputed)
[1] = compound: COC1=CC=C(C=C1)CN2C=CC3=C2C=C(C=C3)C(=O)NO
Procedure, shortened: (§1)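 Soluble protein was quantified by TMTpro 16plex LC-MS/MS after channel sums were equalised. It was obtained as the supernatant after 21,000xg for 90 min from pooled aliquots of K562 cells (2×10^6 cells/mL, 10 μM compound, 30 min) heated for 3 min across 48°C-58°C and extracted in PBS with 0.5% NP-40 at 4°C. Thermal stability values are relative to control samples and come from duplicates. They are given as log2 fold changes.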

Amino acid sequences for entries named in this document (tags omitted). A change or cut given only in a name is not applied to a line headed by its entry.
UniProt Q9NRN7: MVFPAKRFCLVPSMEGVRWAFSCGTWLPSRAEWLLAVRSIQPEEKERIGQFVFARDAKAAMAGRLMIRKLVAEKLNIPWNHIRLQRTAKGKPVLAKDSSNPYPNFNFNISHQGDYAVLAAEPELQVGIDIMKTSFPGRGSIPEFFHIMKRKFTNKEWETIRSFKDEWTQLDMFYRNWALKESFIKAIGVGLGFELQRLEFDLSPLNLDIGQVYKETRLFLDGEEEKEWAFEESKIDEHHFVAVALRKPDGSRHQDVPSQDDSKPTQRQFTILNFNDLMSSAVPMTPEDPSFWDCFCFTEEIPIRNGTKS
UniProt Q13443: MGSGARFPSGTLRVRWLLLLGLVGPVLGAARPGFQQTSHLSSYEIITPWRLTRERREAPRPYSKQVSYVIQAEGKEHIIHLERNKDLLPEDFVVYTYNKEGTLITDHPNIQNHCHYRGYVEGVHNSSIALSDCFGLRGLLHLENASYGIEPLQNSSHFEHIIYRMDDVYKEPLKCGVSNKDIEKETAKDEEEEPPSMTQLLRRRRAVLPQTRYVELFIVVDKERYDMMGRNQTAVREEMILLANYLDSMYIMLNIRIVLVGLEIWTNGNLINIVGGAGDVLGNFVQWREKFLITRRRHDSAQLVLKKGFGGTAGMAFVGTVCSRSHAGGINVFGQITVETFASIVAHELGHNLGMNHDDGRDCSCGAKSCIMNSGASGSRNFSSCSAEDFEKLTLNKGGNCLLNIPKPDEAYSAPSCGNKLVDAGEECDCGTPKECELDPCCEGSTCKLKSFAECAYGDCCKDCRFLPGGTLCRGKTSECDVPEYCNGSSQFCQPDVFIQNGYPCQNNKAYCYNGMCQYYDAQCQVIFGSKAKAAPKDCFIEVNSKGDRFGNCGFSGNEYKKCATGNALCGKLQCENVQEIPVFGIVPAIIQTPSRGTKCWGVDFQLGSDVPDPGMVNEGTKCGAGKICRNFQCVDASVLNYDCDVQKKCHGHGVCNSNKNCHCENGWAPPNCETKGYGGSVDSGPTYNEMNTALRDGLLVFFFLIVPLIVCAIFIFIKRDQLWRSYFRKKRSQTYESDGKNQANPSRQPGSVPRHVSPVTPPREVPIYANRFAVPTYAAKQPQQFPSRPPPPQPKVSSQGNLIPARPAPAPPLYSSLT
UniProt Q9GZN1, whole entry, looked up: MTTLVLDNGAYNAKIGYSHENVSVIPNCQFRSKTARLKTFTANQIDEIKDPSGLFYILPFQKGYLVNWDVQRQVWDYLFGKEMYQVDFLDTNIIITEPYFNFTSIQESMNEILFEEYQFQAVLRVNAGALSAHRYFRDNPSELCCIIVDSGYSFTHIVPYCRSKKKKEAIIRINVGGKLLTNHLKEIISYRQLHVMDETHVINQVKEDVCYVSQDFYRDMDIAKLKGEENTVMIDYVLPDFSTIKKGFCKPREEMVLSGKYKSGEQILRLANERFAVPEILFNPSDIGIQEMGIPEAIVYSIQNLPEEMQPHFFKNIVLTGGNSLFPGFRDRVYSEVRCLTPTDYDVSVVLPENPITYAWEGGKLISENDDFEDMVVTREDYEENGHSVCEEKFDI
UniProt Q9UKU7: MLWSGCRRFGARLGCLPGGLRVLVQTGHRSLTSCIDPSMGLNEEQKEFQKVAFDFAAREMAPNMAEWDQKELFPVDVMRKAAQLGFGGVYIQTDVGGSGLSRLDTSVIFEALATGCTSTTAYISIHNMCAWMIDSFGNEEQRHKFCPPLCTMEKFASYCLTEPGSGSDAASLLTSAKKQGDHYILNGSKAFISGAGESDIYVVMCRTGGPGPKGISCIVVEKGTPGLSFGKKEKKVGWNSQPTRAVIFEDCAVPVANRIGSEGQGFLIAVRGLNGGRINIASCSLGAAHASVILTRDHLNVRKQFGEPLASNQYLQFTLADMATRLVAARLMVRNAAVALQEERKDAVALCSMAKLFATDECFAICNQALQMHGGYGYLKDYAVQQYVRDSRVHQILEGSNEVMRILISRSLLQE
UniProt Q9NUT2: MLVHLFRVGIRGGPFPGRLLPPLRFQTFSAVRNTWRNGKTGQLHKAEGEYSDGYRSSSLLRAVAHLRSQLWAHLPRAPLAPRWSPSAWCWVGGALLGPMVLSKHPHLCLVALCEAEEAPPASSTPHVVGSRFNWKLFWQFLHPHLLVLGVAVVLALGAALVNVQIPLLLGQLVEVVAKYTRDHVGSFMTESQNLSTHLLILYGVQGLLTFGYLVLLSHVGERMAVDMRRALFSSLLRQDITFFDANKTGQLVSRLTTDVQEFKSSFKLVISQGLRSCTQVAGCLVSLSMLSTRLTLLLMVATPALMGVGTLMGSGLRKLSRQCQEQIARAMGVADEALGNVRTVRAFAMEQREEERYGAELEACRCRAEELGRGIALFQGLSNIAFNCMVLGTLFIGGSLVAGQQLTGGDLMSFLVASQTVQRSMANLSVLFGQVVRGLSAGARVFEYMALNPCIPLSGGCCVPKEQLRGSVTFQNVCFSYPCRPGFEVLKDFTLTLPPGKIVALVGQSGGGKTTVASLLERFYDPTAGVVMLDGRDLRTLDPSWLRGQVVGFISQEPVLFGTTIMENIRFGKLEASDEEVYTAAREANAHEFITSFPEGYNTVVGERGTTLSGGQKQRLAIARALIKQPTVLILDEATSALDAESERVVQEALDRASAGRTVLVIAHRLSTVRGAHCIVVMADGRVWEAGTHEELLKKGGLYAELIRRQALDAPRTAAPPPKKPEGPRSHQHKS
UniProt P07311: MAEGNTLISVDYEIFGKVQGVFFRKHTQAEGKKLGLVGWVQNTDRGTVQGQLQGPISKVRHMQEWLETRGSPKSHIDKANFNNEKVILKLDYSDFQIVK
UniProt O96019, whole entry, looked up: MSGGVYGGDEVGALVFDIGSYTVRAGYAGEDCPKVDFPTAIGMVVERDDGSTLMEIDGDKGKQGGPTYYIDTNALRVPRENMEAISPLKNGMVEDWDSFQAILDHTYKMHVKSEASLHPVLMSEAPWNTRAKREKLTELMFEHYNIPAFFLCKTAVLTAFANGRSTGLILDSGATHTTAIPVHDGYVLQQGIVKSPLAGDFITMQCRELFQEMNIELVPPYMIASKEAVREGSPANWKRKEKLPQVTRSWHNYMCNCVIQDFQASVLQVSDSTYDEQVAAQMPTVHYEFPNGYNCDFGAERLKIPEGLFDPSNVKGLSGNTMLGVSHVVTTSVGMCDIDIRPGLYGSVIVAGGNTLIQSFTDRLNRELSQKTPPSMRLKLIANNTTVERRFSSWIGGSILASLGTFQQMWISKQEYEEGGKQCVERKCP
UniProt Q6DHV7: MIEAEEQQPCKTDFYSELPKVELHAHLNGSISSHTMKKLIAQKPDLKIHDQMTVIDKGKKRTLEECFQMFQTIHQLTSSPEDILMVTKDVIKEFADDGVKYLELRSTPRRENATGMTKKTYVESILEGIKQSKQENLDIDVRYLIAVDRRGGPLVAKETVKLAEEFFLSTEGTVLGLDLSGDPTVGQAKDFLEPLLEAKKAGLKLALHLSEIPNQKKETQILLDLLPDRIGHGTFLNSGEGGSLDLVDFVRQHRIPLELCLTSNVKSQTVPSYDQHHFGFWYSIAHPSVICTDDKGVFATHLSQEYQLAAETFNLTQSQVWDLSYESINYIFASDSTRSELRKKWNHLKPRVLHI
UniProt Q8IZP0: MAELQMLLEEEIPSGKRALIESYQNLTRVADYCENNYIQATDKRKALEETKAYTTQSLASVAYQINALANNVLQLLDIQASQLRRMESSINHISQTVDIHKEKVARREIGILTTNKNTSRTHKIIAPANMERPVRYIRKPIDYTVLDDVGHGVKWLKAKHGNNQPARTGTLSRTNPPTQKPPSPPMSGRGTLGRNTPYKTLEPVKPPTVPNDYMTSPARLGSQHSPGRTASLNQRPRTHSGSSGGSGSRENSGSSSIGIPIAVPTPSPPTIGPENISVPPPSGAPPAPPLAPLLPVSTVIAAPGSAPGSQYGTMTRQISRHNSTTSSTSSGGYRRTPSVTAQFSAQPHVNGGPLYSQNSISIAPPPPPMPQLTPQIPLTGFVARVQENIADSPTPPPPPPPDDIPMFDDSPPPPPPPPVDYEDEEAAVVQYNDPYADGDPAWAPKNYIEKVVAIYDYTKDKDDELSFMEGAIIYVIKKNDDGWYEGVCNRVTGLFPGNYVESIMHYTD
UniProt O14734: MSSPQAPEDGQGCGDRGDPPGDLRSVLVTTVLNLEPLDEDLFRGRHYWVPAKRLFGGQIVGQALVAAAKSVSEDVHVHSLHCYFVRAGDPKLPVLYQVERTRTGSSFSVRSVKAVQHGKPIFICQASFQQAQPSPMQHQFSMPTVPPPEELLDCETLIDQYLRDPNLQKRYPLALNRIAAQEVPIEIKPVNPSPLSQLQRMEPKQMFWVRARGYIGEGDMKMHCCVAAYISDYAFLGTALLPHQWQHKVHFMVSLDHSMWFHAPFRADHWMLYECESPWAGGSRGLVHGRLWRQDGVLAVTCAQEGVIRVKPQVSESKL
UniProt P01023, whole entry, looked up: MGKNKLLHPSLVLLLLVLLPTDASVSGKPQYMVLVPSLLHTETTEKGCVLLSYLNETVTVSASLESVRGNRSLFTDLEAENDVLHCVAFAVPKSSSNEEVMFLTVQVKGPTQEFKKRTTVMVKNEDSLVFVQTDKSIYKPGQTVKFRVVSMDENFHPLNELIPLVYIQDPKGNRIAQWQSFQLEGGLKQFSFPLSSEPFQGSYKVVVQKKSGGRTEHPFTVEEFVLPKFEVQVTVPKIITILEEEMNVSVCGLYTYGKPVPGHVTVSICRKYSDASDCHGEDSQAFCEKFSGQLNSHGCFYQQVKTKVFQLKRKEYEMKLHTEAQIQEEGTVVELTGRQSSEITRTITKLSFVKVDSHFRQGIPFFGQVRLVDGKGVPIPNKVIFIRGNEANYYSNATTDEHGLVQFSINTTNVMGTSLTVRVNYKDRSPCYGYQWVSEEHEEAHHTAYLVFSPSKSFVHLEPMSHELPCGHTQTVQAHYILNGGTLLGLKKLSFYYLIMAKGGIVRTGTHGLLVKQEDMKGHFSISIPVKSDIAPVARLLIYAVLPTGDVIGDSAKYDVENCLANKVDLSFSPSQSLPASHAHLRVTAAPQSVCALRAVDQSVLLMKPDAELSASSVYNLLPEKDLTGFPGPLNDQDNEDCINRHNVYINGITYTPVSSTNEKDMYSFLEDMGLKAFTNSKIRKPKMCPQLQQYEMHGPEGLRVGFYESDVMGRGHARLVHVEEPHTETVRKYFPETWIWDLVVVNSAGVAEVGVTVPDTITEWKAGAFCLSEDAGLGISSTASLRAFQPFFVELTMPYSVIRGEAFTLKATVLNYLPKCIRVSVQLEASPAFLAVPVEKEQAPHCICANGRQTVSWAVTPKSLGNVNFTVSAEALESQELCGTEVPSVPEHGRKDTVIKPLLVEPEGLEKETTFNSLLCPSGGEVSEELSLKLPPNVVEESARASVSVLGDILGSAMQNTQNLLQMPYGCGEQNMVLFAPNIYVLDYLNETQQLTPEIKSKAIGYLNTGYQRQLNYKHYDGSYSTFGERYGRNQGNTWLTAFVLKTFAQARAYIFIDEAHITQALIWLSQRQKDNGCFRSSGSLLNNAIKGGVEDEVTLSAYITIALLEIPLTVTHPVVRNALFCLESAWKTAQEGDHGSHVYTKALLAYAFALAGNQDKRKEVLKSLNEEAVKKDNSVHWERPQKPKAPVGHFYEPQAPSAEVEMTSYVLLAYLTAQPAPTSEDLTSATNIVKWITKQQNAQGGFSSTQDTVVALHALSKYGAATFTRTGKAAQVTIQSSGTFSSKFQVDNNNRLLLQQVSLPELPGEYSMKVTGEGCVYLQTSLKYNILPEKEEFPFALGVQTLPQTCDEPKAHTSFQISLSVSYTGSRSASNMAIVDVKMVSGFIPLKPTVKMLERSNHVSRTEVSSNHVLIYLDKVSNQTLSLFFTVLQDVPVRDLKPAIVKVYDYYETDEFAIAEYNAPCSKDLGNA
UniProt Q9NRG9: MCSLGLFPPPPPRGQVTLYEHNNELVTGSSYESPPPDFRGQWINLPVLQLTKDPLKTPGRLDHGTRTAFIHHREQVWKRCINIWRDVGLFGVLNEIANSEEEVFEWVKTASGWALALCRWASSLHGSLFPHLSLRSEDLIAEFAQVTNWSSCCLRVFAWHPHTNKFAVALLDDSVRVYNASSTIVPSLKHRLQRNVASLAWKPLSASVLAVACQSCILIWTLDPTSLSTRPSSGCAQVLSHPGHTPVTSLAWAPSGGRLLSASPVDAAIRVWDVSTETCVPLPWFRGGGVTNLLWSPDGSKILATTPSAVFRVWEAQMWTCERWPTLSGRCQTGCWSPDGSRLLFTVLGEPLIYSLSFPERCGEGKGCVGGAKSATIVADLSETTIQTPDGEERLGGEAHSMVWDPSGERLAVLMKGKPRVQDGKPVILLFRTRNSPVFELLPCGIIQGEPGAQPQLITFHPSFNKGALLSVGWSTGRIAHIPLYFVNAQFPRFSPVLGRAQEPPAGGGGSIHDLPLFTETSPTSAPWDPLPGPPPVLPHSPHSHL

filanesib = compound: CON(C)C(=O)N1N=C(c2cc(F)ccc2F)S[C@@]1(CCCN)c1ccccc1 [filanesib]
Procedure, shortened: as §1

zotarolimus = compound: CO[C@H]1C[C@@H]2CC[C@@H](C)[C@@](O)(O2)C(=O)C(=O)N2CCCC[C@H]2C(=O)O[C@H]([C@H](C)C[C@@H]2CC[C@H](n3cnnn3)[C@H](OC)C2)CC(=O)[C@H](C)/C=C(\C)[C@@H](O)[C@@H](OC)C(=O)[C@H](C)C[C@H](C)/C=C/C=C/C=C/1C [zotarolimus]
Procedure, shortened: as §1

idasanutlin = compound: COc1cc(C(=O)O)ccc1NC(=O)[C@@H]1N[C@@H](CC(C)(C)C)[C@](C#N)(c2ccc(Cl)cc2F)[C@H]1c1cccc(Cl)c1F [idasanutlin]
Procedure, shortened: as §1

alisertib = compound: COc1cc(Nc2ncc3c(n2)-c2ccc(Cl)cc2C(c2c(F)cccc2OC)=NC3)ccc1C(=O)O [alisertib]
Procedure, shortened: as §1

[2] = compound: COc1cc2nc(-c3cc(F)ccc3O)nc(N[C@@H]3CNC[C@H]3C(C)(C)O)c2cc1OC
Procedure, shortened: as §1

gefitinib = compound: COc1cc2ncnc(Nc3ccc(F)c(Cl)c3)c2cc1OCCCN1CCOCC1 [gefitinib]
Procedure, shortened: as §1

[3] = compound: COc1cccc2cc(-c3nc([C@H]4CC[C@H](C(=O)O)CC4)n4ncnc(N)c34)[nH]c12
Procedure, shortened: as §1

lapatinib = compound: CS(=O)(=O)CCNCc1ccc(-c2ccc3ncnc(Nc4ccc(OCc5cccc(F)c5)c(Cl)c4)c3c2)o1 [lapatinib]
Procedure, shortened: as §1

pictilisib = compound: CS(=O)(=O)N1CCN(Cc2cc3nc(-c4cccc5[nH]ncc45)nc(N4CCOCC4)c3s2)CC1 [pictilisib]
Procedure, shortened: as §1

[4] = compound: CS(=O)(=O)c1ccc(-c2cnc(N)c(C(=O)Nc3ccccc3)n2)cc1
Procedure, shortened: as §1

crizotinib = compound: C[C@@H](Oc1cc(-c2cnn(C3CCNCC3)c2)cnc1N)c1c(Cl)ccc(F)c1Cl [crizotinib]
Procedure, shortened: as §1

[5] = compound: C[C@@H]1COCCN1C2=NC(=NC(=C2)C3(CC3)S(=O)(=O)C)C4=C5C=CNC5=CC=C4
Procedure, shortened: as §1

[6] = compound: C[C@H](C1=CC=C(C=C1)C(=O)NC2=C3C=CNC3=NC=C2)N
Procedure, shortened: as §1

duvelisib = compound: C[C@H](Nc1ncnc2nc[nH]c12)c1cc2cccc(Cl)c2c(=O)n1-c1ccccc1 [duvelisib]
Procedure, shortened: as §1

gandotinib = compound: Cc1cc(Nc2cc(CN3CCOCC3)c3nc(C)c(Cc4ccc(Cl)cc4F)n3n2)n[nH]1 [gandotinib]
Procedure, shortened: as §1

tozasertib = compound: Cc1cc(Nc2cc(N3CCN(C)CC3)nc(Sc3ccc(NC(=O)C4CC4)cc3)n2)n[nH]1 [tozasertib]
Procedure, shortened: as §1

[7] = compound: Cc1cc(SCc2sc(-c3ccc(C(F)(F)F)cc3)nc2C)ccc1OCC(=O)O
Procedure, shortened: as §1

doramapimod = compound: Cc1ccc(-n2nc(C(C)(C)C)cc2NC(=O)Nc2ccc(OCCN3CCOCC3)c3ccccc23)cc1 [doramapimod]
Procedure, shortened: as §1

ispinesib = compound: Cc1ccc(C(=O)N(CCCN)[C@@H](c2nc3cc(Cl)ccc3c(=O)n2Cc2ccccc2)C(C)C)cc1 [ispinesib]
Procedure, shortened: as §1

Measured: log2 fold change

ACADS (UniProt P16219)
inactive: [1] 0.063 | filanesib -0.065 | zotarolimus -0.028 | idasanutlin -0.115 | alisertib -0.074 | [2] 0.041 | gefitinib -0.022 | [3] 0.045 | lapatinib -0.021 | pictilisib 0.104 | [4] 0.028 | crizotinib 0.038 | [5] 0.105 | [6] 0.031 | duvelisib 0.057 | gandotinib 0.042 | tozasertib -0.022 | [7] 0.008 | doramapimod 0.005 | ispinesib 0.066

AASDHPPT (UniProt Q9NRN7)
inactive: [1] -0.067 | filanesib 0.003 | zotarolimus 0.018 | idasanutlin -0.041 | alisertib -0.074 | [2] 0.067 | gefitinib -0.006 | [3] -0.001 | lapatinib -0.032 | pictilisib 0.058 | [4] 0.006 | crizotinib 0.02 | [5] 0.045 | [6] -0.038 | duvelisib 0.057 | gandotinib -0.05 | tozasertib 0.046 | [7] 0.019 | doramapimod -0.031 | ispinesib 0.113

ADAM9 (UniProt Q13443)
inactive: [1] -0.012 | filanesib 0.023 | zotarolimus -0.075 | idasanutlin -0.003 | alisertib -0.017 | [2] 0.111 | gefitinib 0.009 | [3] 0.005 | lapatinib -0.028 | pictilisib 0.09 | [4] 0.014 | crizotinib 0.038 | [5] -0.026 | [6] 0.018 | duvelisib -0.005 | gandotinib 0.042 | tozasertib 0.014 | [7] -0.076 | doramapimod -0.019 | ispinesib 0.059

ABCF3 (UniProt Q9NUQ8)
inactive: [1] -0.052 | filanesib 0.333 | zotarolimus 0.027 | idasanutlin 0.233 | alisertib -0.115 | [2] -0.171 | gefitinib 0.034 | [3] -0.276 | lapatinib 0.039 | pictilisib 0.266 | [4] 0.085 | crizotinib -0.046 | [5] -0.305 | [6] 0.43 | duvelisib -0.064 | gandotinib 0.046 | tozasertib -0.035 | [7] 0.141 | doramapimod 0.141 | ispinesib -0.291

ACTR6 (UniProt Q9GZN1)
inactive: [1] -0.014 | filanesib 0.058 | zotarolimus 0.03 | idasanutlin 0.008 | alisertib 0.056 | [2] 0.054 | gefitinib 0.028 | [3] -0.008 | lapatinib 0.024 | pictilisib 0.067 | [4] -0.015 | crizotinib -0.051 | [5] 0.03 | [6] 0.061 | duvelisib 0.045 | gandotinib -0.056 | tozasertib 0.012 | [7] 0.035 | doramapimod 0.056 | ispinesib 0.021

ACAD8 (UniProt Q9UKU7)
inactive: [1] -0.122 | filanesib 0.074 | zotarolimus -0.003 | idasanutlin -0.065 | alisertib -0.104 | [2] 0.064 | gefitinib 0.098 | [3] 0.056 | lapatinib -0.035 | pictilisib 0.021 | [4] -0.008 | crizotinib -0.07 | [5] 0.009 | [6] 0.022 | duvelisib 0.037 | gandotinib 0.022 | tozasertib -0.016 | [7] -0.047 | doramapimod 0.016 | ispinesib 0.111

ABCB8 (UniProt Q9NUT2)
inactive: [1] -0.095 | filanesib -0.081 | zotarolimus 0.001 | idasanutlin -0.032 | alisertib 0.143 | [2] 0.117 | gefitinib 0.061 | [3] 0.041 | lapatinib 0.043 | pictilisib 0.002 | [4] 0.011 | crizotinib -0.191 | [5] 0.046 | [6] -0.014 | duvelisib 0.042 | gandotinib -0.072 | tozasertib -0.05 | [7] 0.018 | doramapimod -0.006 | ispinesib -0.051

ACYP1 (UniProt P07311)
inactive: [1] -0.046 | filanesib -0.047 | zotarolimus 0.016 | idasanutlin -0.05 | alisertib -0.056 | [2] -0.041 | gefitinib 0.02 | [3] 0.037 | lapatinib 0.017 | pictilisib 0.182 | [4] 0.115 | crizotinib 0.006 | [5] 0.055 | [6] -0.068 | duvelisib 0.023 | gandotinib 0.006 | tozasertib 0.041 | [7] -0.011 | doramapimod -0.007 | ispinesib 0.153

ACTL6A (UniProt O96019)
inactive: [1] 0.051 | filanesib -0.026 | zotarolimus 0.001 | idasanutlin -0.048 | alisertib -0.014 | [2] 0.025 | gefitinib 0.007 | [3] 0.023 | lapatinib -0.003 | pictilisib 0.046 | [4] 0.025 | crizotinib 0.022 | [5] 0.196 | [6] -0.027 | duvelisib 0.019 | gandotinib -0.012 | tozasertib 0.002 | [7] 0.005 | doramapimod -0.068 | ispinesib 0.034

ADAL (UniProt Q6DHV7)
inactive: [1] 0.06 | filanesib -0.049 | zotarolimus -0.031 | idasanutlin -0.038 | alisertib -0.127 | [2] 0.019 | gefitinib -0.024 | [3] 0.014 | lapatinib 0.025 | pictilisib -0.014 | [4] 0.005 | crizotinib 0.12 | [5] 0.086 | [6] -0.036 | duvelisib 0.007 | gandotinib 0.05 | tozasertib -0.047 | [7] -0.019 | doramapimod -0.043 | ispinesib 0.09

ABI1 (UniProt Q8IZP0)
inactive: [1] 0.02 | filanesib 0.027 | zotarolimus 0.091 | idasanutlin -0.034 | alisertib -0.042 | [2] 0.034 | gefitinib 0.025 | [3] 0.012 | lapatinib -0.002 | pictilisib -0.078 | [4] 0.009 | crizotinib -0.023 | [5] 0.031 | [6] -0.139 | duvelisib 0.073 | gandotinib -0.014 | tozasertib -0.004 | [7] 0.102 | doramapimod -0.034 | ispinesib -0.039

ACOT8 (UniProt O14734)
inactive: [1] 0.001 | filanesib -0.022 | zotarolimus -0.06 | idasanutlin -0.036 | alisertib -0.017 | [2] 0.066 | gefitinib 0.022 | [3] 0.163 | lapatinib -0.044 | pictilisib 0.043 | [4] 0.008 | crizotinib 0.034 | [5] -0.012 | [6] -0.024 | duvelisib -0.015 | gandotinib -0.032 | tozasertib -0.005 | [7] 0.005 | doramapimod 0.024 | ispinesib 0.006

A2M (UniProt P01023)
inactive: [1] -0.073 | filanesib 0.189 | zotarolimus -0.184 | idasanutlin 0.083 | alisertib -0.055 | [2] -0.188 | gefitinib -0.159 | [3] 0.374 | lapatinib -0.021 | pictilisib 0.069 | [4] -0.161 | crizotinib 0.102 | [5] -0.079 | [6] 0.188 | duvelisib -0.228 | gandotinib -0.016 | tozasertib -0.015 | [7] -0.101 | doramapimod 0.172 | ispinesib -0.054

AAAS (UniProt Q9NRG9)
inactive: [1] 0.012 | filanesib 0.004 | zotarolimus 0.022 | idasanutlin 0.001 | alisertib -0.073 | [2] -0.003 | gefitinib 0.018 | [3] 0.002 | lapatinib 0.018 | pictilisib -0.012 | [4] -0.018 | crizotinib 0.018 | [5] -0.013 | [6] -0.089 | duvelisib 0.012 | gandotinib -0.028 | tozasertib 0.008 | [7] 0.004 | doramapimod -0.021 | ispinesib 0.056

ACADSB (UniProt P45954)
inactive: [1] 0.086 | filanesib -0.024 | zotarolimus 0.012 | idasanutlin -0.101 | alisertib 0.048 | [2] 0.005 | gefitinib -0.003 | [3] 0.03 | lapatinib 0.044 | pictilisib 0.085 | [4] 0.115 | crizotinib -0.009 | [5] 0.118 | [6] -0.099 | duvelisib 0.084 | gandotinib 0.048 | tozasertib -0.128 | [7] 0.068 | doramapimod 0.006 | ispinesib 0.105

ABCF2 isoform 2 (UniProt Q9UG63)
inactive: [1] -0.034 | filanesib -0.054 | zotarolimus -0.027 | idasanutlin -0.056 | alisertib -0.042 | [2] 0.006 | gefitinib -0.037 | [3] 0.058 | lapatinib -0.007 | pictilisib 0.059 | [4] 0.041 | crizotinib -0.117 | [5] 0.006 | [6] 0.008 | duvelisib 0.02 | gandotinib -0.035 | tozasertib -0.045 | [7] 0.027 | doramapimod 0.008 | ispinesib -0.031
